# Data published in patent US20160178622.
# Construct, isoform or probe ends are uncertain for at least one entry. No signal at the amounts used counts as a negative. Protein sequences can lack the tags named with them.
# Biological target: T1, Ara h 2 (peanut allergen) (UniProt Q6PSU2)
# T1 sequence (looked up, limits assumed): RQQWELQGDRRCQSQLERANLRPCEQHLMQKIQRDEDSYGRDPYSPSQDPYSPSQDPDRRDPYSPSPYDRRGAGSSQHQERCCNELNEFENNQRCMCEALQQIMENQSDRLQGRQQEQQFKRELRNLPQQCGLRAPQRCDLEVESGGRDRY
# Assay: binding assay
# Conditions: 5' amino group with C6 carbon spacer; CITED binding of Ara h 2 to aptamer considered negligible as documented in the art; competitor reference experiment on aptasensor mentioned but result not given; purified native protein; single-stranded DNA
sequence,measurement,value
TCGCACATTCCGCTTCTACCGGGGGGGTCGAGCTGAGTGGATGCGAATCTGTGGGTGGGCCGTAAGTCCGTGTGTGCGAA [Ara h 1 aptamer (Tran et al.)],binding result,no binding
